Data as given in PubChem BioAssay AID602196 (INSERM, 2012)
Aim: 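Knock-downs that protect lung cancer cells from cisplatin or sensitise them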. Cells: human A549 lung cancer cells. Knock-down reagent: siRNA pair against human genes. Duration: 48 h transfection before cisplatin; time from cisplatin to read-out not stated. Conditions: cisplatin at a dose killing half of control-siRNA cells; exact dose and duration not given. Detection: 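Shift in cisplatin death relative to control siRNA, from -50 (all cells die) to +50 (no cells die); siRNAs harmful on their own scored 0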. Scale: two-siRNA summed score (-2 to +2): higher = both siRNAs protect from cisplatin killing; -2 means both sensitise. Hit rule: 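siRNAs harmful alone (LDH or WST-1) get 0; others get +1 for less and -1 for more cisplatin killing; genes are active when the two siRNAs give the same sign, summing to ±2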. Calls: active = both siRNAs shift cisplatin killing the same way; inactive = no consistent shift, or siRNA harmful alone.
The deposit covers about 23,000 reagents; below is a part drawn at random. Of all reagents, 455 (2%) are marked active. 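Active includes both protection and sensitisation; some change values fall well beyond the stated -50 to +50 range.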 The numbers tell different reagents against one gene apart. Further read-outs or replicates are left out here. The record does not give: the amount of reagent.

Silencing of PRSS41 came out at: two-siRNA summed score (-2 to +2) = 1; inactive. LOC283034 showed two-siRNA summed score (-2 to +2) = 0; inactive. Knock-down of LOC388789 resulted in: two-siRNA summed score (-2 to +2) = 1; inactive. VPS50 #1 showed two-siRNA summed score (-2 to +2) = 0; inactive. Against VPS50 #2, the values are two-siRNA summed score (-2 to +2) = 0; inactive. After knock-down of LOC441841, the screen gave two-siRNA summed score (-2 to +2) = 1; inactive.

After knock-down of LOC442704, the screen gave two-siRNA summed score (-2 to +2) = 0; inactive. Knock-down of SIRT7 gave: two-siRNA summed score (-2 to +2) = 0; inactive. Against MYOT the deposit lists two-siRNA summed score (-2 to +2) = 1; inactive.

Laid out differently: 2 of the entries above.
LOC283034
- two-siRNA summed score (-2 to +2): 0
- Call: inactive

LOC388789
- two-siRNA summed score (-2 to +2): 1
- Call: inactive

The results go on:
After knock-down of LOC441618, the record shows two-siRNA summed score (-2 to +2) = 0; inactive. CHGA showed two-siRNA summed score (-2 to +2) = 0; inactive. Depletion of PAPSS1 resulted in: two-siRNA summed score (-2 to +2) = -1; inactive. After knock-down of STK35, the record shows two-siRNA summed score (-2 to +2) = -1; inactive. After knock-down of CHST10, the record shows two-siRNA summed score (-2 to +2) = 0; inactive. LOC283583 showed two-siRNA summed score (-2 to +2) = 0; inactive.

BRME1 showed two-siRNA summed score (-2 to +2) = 0; inactive. Knock-down of ZNRF3 gave: two-siRNA summed score (-2 to +2) = 0; inactive. LOC164036 scored two-siRNA summed score (-2 to +2) = 0; inactive. REXO1 showed two-siRNA summed score (-2 to +2) = -1; inactive. With knock-down of RNLS the results were two-siRNA summed score (-2 to +2) = 0; inactive. With knock-down of LOC440344, the record shows two-siRNA summed score (-2 to +2) = -1; inactive.
